This note sets out measurements from US20120015399A1, “FLUORESCENT SOLVATOCHROMIC PIGMENT” (National University Corporation Hokkaido University, priority 2009, published 2012).

This series has as its system human colon cancer cell T84. Kind of series: Staining of cultured cells, confocal laser fluorescence microscopy. The class given is cell-based. As for the experimental part:
In the present Example, Compound 7 was introduced into cultured human colon cancer cell T84 and its image was observed using a fluorescence microscope.
Human colon cancer cell T84 culture (cell stock-microbial stock-gene bank (ATCC) number CCL-248, supplied by Summit Pharmaceuticals International Corporation) in a sub-confluent state that had been cultured (37° C., 5% CO2) for two to four days in a glass bottom dish (35 mm, Matsunami Glass Ind., Ltd.) was washed with phosphoric acid buffered physiological saline solution. One hundred microliters of a DMSO solution of 2×10^−5 M of Compound 7 was added dropwise near the cells, and a reaction was allowed to occur for five minutes at room temperature. The cells were washed again using phosphoric acid buffered physiological saline solution and were immediately exposed to an argon laser (488 nm) to reach an excited state in the phosphoric acid buffered physiological saline solution. The response was observed using a confocal laser microscope (LSM510META manufactured by Carl Zeiss).
In the present Comparative Example, the compound shown below described in Reference 3 (Japanese Patent Application Public Disclosure No. 2008-291210) was used in place of Compound 7, and the fluorescence microscope images of the cultured human colon cancer cell T84 were examined in the manner described in Example 5.

For the compound `CCCCCCN(CCCCCC)c1ccc(-c2ccc(-c3cc[n+](C)cc3)s2)cc1.F[B-](F)(F)F` [Compound 7, 4-[5-(4-dihexylamino)phenyl]thiophene-2-yl-1-methylpyridinium tetrafluoroborate], for the setting “standing at room temperature”, the “Time stained cells maintained the fluorescence” value is recorded as “at least several hours”.

As for `CN(C)c1ccc(-c2ccc(-c3ccc(S(=O)(=O)OCC(C)(C)C)cc3)s2)cc1` [reference compound], the “Excitation needed to obtain fluorescence image” value (Comparative Example 1) was “only when excited by using a blue diode laser (405 nm)”.
